Experimental data: US8771694 (IMMUNOMEDICS, dated 2014)
Results are given in words; binding and its absence hold for the method and conditions named. Some entries that bind do so weakly or less than the wild type.

Protein sequences, listed by entry. Tags and fused reporters are not part of them. Residues count along the entry.
UniProt P20273, residues 20-847: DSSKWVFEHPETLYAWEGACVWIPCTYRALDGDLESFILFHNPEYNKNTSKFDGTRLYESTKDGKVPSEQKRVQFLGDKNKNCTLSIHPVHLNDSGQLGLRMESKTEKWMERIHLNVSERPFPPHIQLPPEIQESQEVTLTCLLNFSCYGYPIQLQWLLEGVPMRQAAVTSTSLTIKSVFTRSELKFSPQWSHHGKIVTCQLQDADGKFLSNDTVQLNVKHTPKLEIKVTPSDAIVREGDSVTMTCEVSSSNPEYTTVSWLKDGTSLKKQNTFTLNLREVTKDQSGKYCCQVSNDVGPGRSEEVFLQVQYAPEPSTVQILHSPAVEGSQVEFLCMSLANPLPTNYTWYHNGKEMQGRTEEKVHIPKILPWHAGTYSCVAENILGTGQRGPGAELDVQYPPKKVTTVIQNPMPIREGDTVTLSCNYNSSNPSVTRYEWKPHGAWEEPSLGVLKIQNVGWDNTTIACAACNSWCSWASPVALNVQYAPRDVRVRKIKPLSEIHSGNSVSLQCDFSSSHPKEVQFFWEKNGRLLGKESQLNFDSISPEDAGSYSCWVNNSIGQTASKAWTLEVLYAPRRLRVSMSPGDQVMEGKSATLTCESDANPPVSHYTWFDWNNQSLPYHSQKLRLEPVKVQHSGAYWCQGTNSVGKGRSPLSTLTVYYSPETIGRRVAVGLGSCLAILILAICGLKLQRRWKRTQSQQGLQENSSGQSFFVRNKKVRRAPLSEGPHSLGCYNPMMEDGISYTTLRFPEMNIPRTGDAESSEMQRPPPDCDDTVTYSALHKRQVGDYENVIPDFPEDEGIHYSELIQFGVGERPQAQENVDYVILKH

target: CD22 (LL2 antigen on the surface of Raji cells) (UniProt P20273); assay: competition flow cytometry on Raji cells, competitor mLL2 F(ab')2

binding | Binder
binds | mix-and-match LL2 with chimeric light and humanized heavy (version 1) chains (antibody, IgG1, V domains shown, N-linked carbohydrate at the Asn-Val-Thr site, positions 18-20 of VK FR1) VH: QVQLQQSGAEVKKPGSSVKVSCKASGYTFTSYWLHWVRQAPGQGLEWIGYINPRNDYTEYNQNFKDKATITADESTNTAYMELSSLRSEDTAFYFCARRDITTFYWGQGTTVTVSS VL: DIQLTQSPSSLAVSAGENVTMSCKSSQSVLYSANHKNYLAWYQQKPGQSPKLLIYWASTRESGVPDRFTGSGSGTDFTLTISRVQVEDLAIYYCHQYLSSWTFGGGTKLEIKR
binds | mix-and-match LL2 with chimeric light and humanized heavy (version 2) chains (antibody, IgG1, V domains shown, N-linked carbohydrate at the Asn-Val-Thr site, positions 18-20 of VK FR1) VH: QVQLVQSGAEVKKPGSSVKVSCKASGYTFTSYWLHWVRQAPGQGLEWIGYINPRNDYTEYNQNFKDKATITADESTNTAYMELSSLRSEDTAFYFCARRDITTFYWGQGTTVTVSS VL: DIQLTQSPSSLAVSAGENVTMSCKSSQSVLYSANHKNYLAWYQQKPGQSPKLLIYWASTRESGVPDRFTGSGSGTDFTLTISRVQVEDLAIYYCHQYLSSWTFGGGTKLEIKR
binds | mix-and-match LL2 with a humanized light and chimeric heavy chain (antibody, IgG1, V domains shown) VH: QVQLQESGAELSKPGASVKMSCKASGYTFTSYWLHWIKQRPGQGLEWIGYINPRNDYTEYNQNFKDKATLTADKSSSTAYMQLSSLTSEDSAVYYCARRDITTFYWGQGTTLTVSS VL: DIQLTQSPSSLSASVGDRVTMSCKSSQSVLYSANHKNYLAWYQQKPGKAPKLLIYWASTRESGVPSRFSGSGSGTDFTFTISSLQPEDIATYYCHQYLSSWTFGGGTKVQIKR
